Results taken from patent publication US20220153839A1.
No constants are given. Whether binding was seen depends on the method and setting. Some results given as binding are weak or reduced against the parent protein; the word gives no strength.

The chains behind the UniProt entries cited, without tags or fusion partners. Where a name states a change or a piece, a line headed by the entry shows the natural chain unless it says otherwise. Residues count along the entry.
UniProt Q01973: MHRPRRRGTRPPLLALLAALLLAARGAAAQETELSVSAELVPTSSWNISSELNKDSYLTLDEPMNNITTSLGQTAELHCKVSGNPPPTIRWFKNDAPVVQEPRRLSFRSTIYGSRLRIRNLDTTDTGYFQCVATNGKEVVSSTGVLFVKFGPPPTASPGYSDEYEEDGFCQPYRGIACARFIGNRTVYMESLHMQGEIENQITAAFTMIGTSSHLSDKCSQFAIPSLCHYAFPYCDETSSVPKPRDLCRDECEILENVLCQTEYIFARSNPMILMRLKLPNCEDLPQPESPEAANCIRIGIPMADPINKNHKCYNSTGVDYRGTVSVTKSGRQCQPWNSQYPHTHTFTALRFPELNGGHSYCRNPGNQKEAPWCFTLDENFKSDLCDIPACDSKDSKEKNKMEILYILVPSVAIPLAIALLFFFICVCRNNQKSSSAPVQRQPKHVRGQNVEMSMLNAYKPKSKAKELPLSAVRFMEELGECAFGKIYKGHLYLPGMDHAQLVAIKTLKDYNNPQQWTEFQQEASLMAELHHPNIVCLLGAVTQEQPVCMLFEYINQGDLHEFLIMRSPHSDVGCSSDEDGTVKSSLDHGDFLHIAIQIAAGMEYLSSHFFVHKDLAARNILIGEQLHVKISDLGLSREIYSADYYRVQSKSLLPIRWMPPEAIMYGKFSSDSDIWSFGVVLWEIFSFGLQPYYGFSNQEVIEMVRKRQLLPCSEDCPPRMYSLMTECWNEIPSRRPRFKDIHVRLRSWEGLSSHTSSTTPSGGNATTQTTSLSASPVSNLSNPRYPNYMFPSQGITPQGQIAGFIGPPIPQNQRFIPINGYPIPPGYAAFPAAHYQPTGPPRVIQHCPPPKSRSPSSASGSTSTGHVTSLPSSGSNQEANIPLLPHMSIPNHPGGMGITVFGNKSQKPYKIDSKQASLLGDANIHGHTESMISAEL
human ROR1, full length, on cells: residues 30-937 of Q01973
purified extracellular domain of hROR1 (Western blot, FIG. 9 lane 3): residues 30-406 of Q01973
Ig + Fr: residues 42-299 of Q01973

Key:
[1] = target: human ROR1, full length, on cells (human) (UniProt Q01973); assay: Western blot, denatured and reduced protein, IgG1 at 2 µg/mL
[2] = target: human ROR1, full length, on cells (human) (UniProt Q01973); assay: Retrogenix cell microarray, fixed HEK293 cells expressing the protein, anti-human IgG Fc detection
[3] = target: human ROR1, full length, on cells (human) (UniProt Q01973); assay: Retrogenix cell microarray, IgG1 at 2 µg/mL
[4] = target: human ROR1, full length, on cells (human) (UniProt Q01973); assay: flow cytometry, chimeric IgG1 on MDA-MB-231 cells
[5] = target: purified extracellular domain of hROR1 (Western blot, FIG. 9 lane 3) (human) (UniProt Q01973); assay: Western blot, purified extracellular domain of hROR1
[6] = target: human ROR1, full length, on cells (human) (UniProt Q01973); assay: flow cytometry; IgG1 100 ng/100 µL; APC goat anti-human Fcγ
[7] = target: human ROR1, full length, on cells (human) (UniProt Q01973); assay: Western blot of denatured, reduced samples; IgG1 2 µg/mL; anti-human Fcγ-HRP
[8] = target: purified extracellular domain of hROR1 (Western blot, FIG. 9 lane 3) (human) (UniProt Q01973); assay: as above
[9] = target: human ROR1, full length, on cells (human) (UniProt Q01973); assay: cell microarray (Retrogenix): fixed HEK293 cells over-expressing the protein, spotted in duplicate; AlexaFluor647 anti-human IgG Fc detection
[10] = target: human ROR1, full length, on cells (human) (UniProt Q01973); assay: Western blot, lysate of K562 cells expressing full length hROR1
[11] = target: Ig + Fr (human) (UniProt Q01973); assay: ELISA on directly coated hFc fusion proteins of hROR1 domains; Fab detected with anti-His-HRP; A405

B1: XBR1-402 chimeric rabbit/human IgG1 (antibody, V domains shown)
VH: QEQQKESGGGLFKPTDTLTLTCTASGFDISSYYMSWVRQAPGNGLEWIGAIGISGNAYYASWAKSRSTITRNTNLNTVTLKMTSLTAADTATYFCARDHPTYGMDLWGPGTLVTVSS
VL: SYELTQLPSVSVSLGQTARITCEGNNIGSKAVHWYQQKPGLAPGLLIYDDDERPSGVPDRFSGSNSGDTATLTISGAQAGDEADYYCQVWDSSAYVFGGGTQLTVTG
binding [1]: binds
binding [2]: binds
binding [3]: binds
binding [4]: binds
binding [5]: binds
binding [6]: binds
binding [7]: binds
binding [8]: binds
binding [9]: binds
binding [10]: binds

B2: XBR1-402 chimeric rabbit/human Fab (Fab, V domains shown)
VH: QEQQKESGGGLFKPTDTLTLTCTASGFDISSYYMSWVRQAPGNGLEWIGAIGISGNAYYASWAKSRSTITRNTNLNTVTLKMTSLTAADTATYFCARDHPTYGMDLWGPGTLVTVSS
VL: SYELTQLPSVSVSLGQTARITCEGNNIGSKAVHWYQQKPGLAPGLLIYDDDERPSGVPDRFSGSNSGDTATLTISGAQAGDEADYYCQVWDSSAYVFGGGTQLTVTG
binding [11]: binds

B3: ERR1-301 chimeric rabbit/human Fab (Fab, V domains shown)
VH: QEQLEESGGGLVTPGGSLTLTCTASGFTISTYHMSWVRQAPGKGLEWIGSIYAGSGSTYYASWVNGRFTISSNTTQNTVSLQMNSLTVADTATYFCARDHPSYGMDLWGPGTLVTVSS
VL: SYELTQLPSVSVSLGQTARITCGGNSIGSKAVNWYQQKPGLAPGLLIYDDDERPSGVPDRFSASNSGDTATLTISGAQAEDEADYYCQLWDSSAVAYVFGGGTQLTVTG
binding [11]: binds

B4: ERR1-316 chimeric rabbit/human Fab (Fab, V domains shown)
VH: QEQLEESGGRLVTPGTPLTLTCTASGFFLSSYYVSWVRQAPGKGLEWIGAIGTGGSAYYASWAKSRSTITRNTNLSTVTLKMTSLTAADTATYFCARDHPNYGMDLWGPGTLVTVSS
VL: SYELTQLPSVSVSLGQTARITCGGNSIGSKAVNWYQQKPGLAPGLLIYDDDERPSGVPDRFSGSNSGDTATLTISGAQAGDEADYYCQLWDSSTGAYAFGGGTQLTVTG
binding [11]: binds

B5: ERR1-403 chimeric rabbit/human Fab (Fab, V domains shown)
VH: QEQLKESGRGLVQPGGSLKLSCKASGFDFSGWYMTWVRQAPGKGLEWIGTIGTTKGRTYYASWVNGRFTISSNAQNTVDLQMNSLTAADRATYFCVRGSDYFDLWGPGTLVTISS
VL: SYELTQLPSVSVSLGQTARITCGGNSIGSKAVNWYQQKPGLAPGLLIYDDDERPSGVPARFSGSNSGDTATLTISGAQAGDEADYYCQLWDSSAGAYVFGGGTQLTVTG
binding [11]: binds

B6: ERR1-409 chimeric rabbit/human Fab (Fab, V domains shown)
VH: QEQLVESGGRLVTPGGSLTLTCTASGFSLSSYYMGWVRQAPGKGLEWIGTIYGGSGSTWYASWVKGRFTISKTSTAVDLKITSLTTEDTATYFCARSYPGWTTEPYFDIWGPGTLVTVSS
VL: QFVLTQPQSVSGSLGQTVSISCNRDSGNIEDYYVHWYQQHPGKAPTTVIYNDDQRPSGVPDRFSGSIDSTSNSASLTITGLLAEDEADYYCLSSDSSAYVFGGGTQLTVTG
binding [11]: binds

B7: ERR1-TOP15 chimeric rabbit/human Fab (Fab, V domains shown)
VH: QEQLVESGGRLVTPGGSLTLTCAASGFSPSSYWMSWVRQAPGKGLEWIGAIYVDSGSAYYASWAKSRFTISKTSSTTVDLKMTSLTTEDTAIYFCARDGWGSDVWGPGTLVTISS
VL: SYELTQLPSVSVSLGQTARITCGGNSIGSKAVHWYQQKPGLAPGLLIYDDDERPSGVPDRFSGSNSGDTATLTISGAQAGDEADYYCQLWDSSAGAYVFGGGTQLTVTG
binding [11]: binds

B8: ERR1-TOP22 chimeric rabbit/human Fab (Fab, V domains shown)
VH: QSLEESGGRLVTPGTPLTLTCTVSGFSLSSYYMSWVRQAPGKGLEWIGTISSSGSTYYASWVKGRFTISKTSTTVDLKMTSLTTEDTATYFCARDLDYDMDLWGPGTLVTVSS
VL: SYELTQLPSVSVSLGQTARITCGGNSIGSKAVHWYQQKPGLAPGLLIYNDDERPSGVPDRFSGSNSGDTATLTISGAQAGDEADYYCQLWDNNAAVFGGGTQLTVTG
binding [11]: binds

B9: ERR1-TOP43 chimeric rabbit/human Fab (Fab, V domains shown)
VH: QSLEESGGRLVTPGTPLTLTCTVSGFSLSSYWMSWVRQAPGKGLEWIGAIYGSGNTYYASWAKGRFTISKTSTTVDLKITSPTTEDTATYFCARDVHSTATDLWGPGTLVTISS
VL: SYELTQLPSVSVSLGQTARITCGGNNIGSKAVNWYQQKPGLAPGLLIYNDDERPSGVPDRFSGSNSGDTATLTISGAQAGDEADYYCQLWDSSAGAYVFGGGTQLTVTG
binding [11]: binds

B10: ERR1-TOP54 chimeric rabbit/human Fab (Fab, V domains shown)
VH: QSLEESGGRLVTPGTPLTLTCTASGFSLSDYYMSWVRQAPGEGLEWIGTIYGGSGNTWYATWAKGRFTISKTSTTVDLKITSPTTEDTATYFCARDFGLSTGGLWGPGTLVTISS
VL: SYELTQLPSVSVSLGQTARITCGGNSIGSKAVNWYQQKPGLAPGLLIYDDDERPSGVPDRFSGSNSGDTATLTISGAQAGDEADYYCQLWDSSARAFVFGGGTQLTVTG
binding [11]: binds
